{
  "sequences": {"note": "Protein sequences, listed by entry. Tags and fused reporters are not part of them. Lines headed by an entry give the natural chain unless they say otherwise; changes in a name come on top.", "UniProt Q04609": "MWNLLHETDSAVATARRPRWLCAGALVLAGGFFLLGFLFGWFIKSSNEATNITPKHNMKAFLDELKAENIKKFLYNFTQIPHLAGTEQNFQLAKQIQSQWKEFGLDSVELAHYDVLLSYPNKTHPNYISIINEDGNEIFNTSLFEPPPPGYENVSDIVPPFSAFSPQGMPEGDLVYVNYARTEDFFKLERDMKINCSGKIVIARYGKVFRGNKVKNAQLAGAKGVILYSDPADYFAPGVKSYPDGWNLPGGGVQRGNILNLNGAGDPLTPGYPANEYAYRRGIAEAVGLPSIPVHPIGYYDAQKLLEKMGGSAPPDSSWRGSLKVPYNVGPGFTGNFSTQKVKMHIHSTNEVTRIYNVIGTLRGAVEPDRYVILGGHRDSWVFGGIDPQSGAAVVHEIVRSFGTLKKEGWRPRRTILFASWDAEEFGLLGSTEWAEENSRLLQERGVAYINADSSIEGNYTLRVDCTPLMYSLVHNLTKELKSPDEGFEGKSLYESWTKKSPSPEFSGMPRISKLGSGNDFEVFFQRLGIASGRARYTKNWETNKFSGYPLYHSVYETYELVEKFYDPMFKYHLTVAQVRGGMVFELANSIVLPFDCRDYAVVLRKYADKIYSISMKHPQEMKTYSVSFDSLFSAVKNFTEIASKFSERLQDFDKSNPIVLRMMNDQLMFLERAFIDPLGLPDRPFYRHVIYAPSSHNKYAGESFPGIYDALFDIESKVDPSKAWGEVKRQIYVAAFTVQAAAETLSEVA"},
  "source": "patent US20180252698",
  "key": {"[1]": {"system": "MCF-7 cell surface (off-target breast cancer cell control)", "assay": "binding assay", "conditions": "5' NH2-(CH2)6-(OCH2CH2)6 linker; nuclease-stabilized (modification not specified); no MCF-7 cells captured from spiked whole blood; protein on the cell surface; protein details: MCF-7 breast cancer cell line, ATCC"}, "[2]": {"target": "PSMA (prostate specific membrane antigen) on LNCaP cells (UniProt Q04609)", "assay": "binding assay", "conditions": "5' NH2-(CH2)6-(OCH2CH2)6 linker; nuclease-stabilized (modification not specified); LNCaP cell capture from whole blood in PMMA microfluidic channels, 2.5 mm/s; protein on the cell surface; protein details: LNCaP prostate cancer cell line …"}},
  "note": "At least one result comes from cells or an extract, where the contact may be indirect. For some assays here: The exact form of at least one protein or probe is not confirmed. For some assays here: Negatives hold for the conditions tested.",
  "data": [
    {"sequence": "ACCAAGACCUGACUUCUAACUAAGUCUACGUUCC [anti-PSMA RNA aptamer]", "values": [
      {"measurement": "binding result", "setting": "[1]", "value": "no binding"},
      {"measurement": "binding result", "setting": "[2]", "value": "binds"}
    ]}
  ]
}
